At least one compound was matched to its structure with a doubt left.
How the values were obtained:
[1] = tested on: DBA/2J mice; test: Open field test, amphetamine-stimulated activity mouse model of bipolar disorder; format: in vivo; conditions: no amphetamine; compared among vehicle, latanoprost, lithium
Description: DBA/2J strain mice (Jackson Laboratories, Bar Harbor, Me., USA) were obtained with an approximate starting age of 8 weeks and an average body weight of 25.9 g. Mice were acclimatized for at least three days prior to study commencement, and animals in poor condition were rejected during the acclimatization period. All mice were housed under identical conditions in animal rooms with HEPA-filtered air at a temperature of 70° F.+/−5° F. and a relative humidity of 50%+/−20%. Animal rooms maintained a minimum of 12 to 15 air changes per hour with a light/dark cycle of 12 hours on and 12 hours off with no twilight. Sterile Bed-O-Cobs® bedding was used and changed a minimum of once per week. […]
At the commencement of the study, sixty (60) mice were randomly divided into six (6) groups of ten (10) animals. […] During this time, distance traveled was automatically recorded using TopScan (Clever Sys, Reston, Va., USA) video tracking software.
The data herein indicate that PG and PG derivatives may be effective in treating neuropsychiatric conditions such as bipolar disorder. Therefore, we evaluated the efficacy of latanoprost in an open field model of bipolar disorder in mice. […]
Total distance traveled for each mouse over a 20-minute session was recorded using TopScan (Clever Sys, Reston, Va., USA) video tracking software. […]

[2] = tested on: β-catenin; test: β-catenin stabilization in the brain of open field test mice (Western blot); format: in vivo, mouse; conditions: brains after open field test; relative to mice treated with saline; n=3
Description: Following the open field test behavioral analysis of mice, the mice were euthanized and their brains were dissected and bifurcated along the longitudinal fissure. Brain samples from mice treated with vehicle (saline), latanoprost, or lithium were processed for β-catenin stabilization by extraction with hypotonic buffer. The levels of stabilized β-catenin were analyzed by Western blot, and the relative amounts of β-catenin (represented as the mean relative amount of three mice per group) were quantified.

Q: Which results are given for `[Li]` [lithium]?
A: activity in saline-treated mice [1]: No significant differences; levels of β-catenin in brain [2]: significantly increased levels of β-catenin

— patent publication US9259409B2, “Compositions comprising a prostaglandin for treating neuropsychiatric conditions” (Inceptum Research & Therapeutics, Inc., priority 2011, dated 2016)
